Some of the results follow.
compound: Cc1nc(Nc2ncc(C(=O)Nc3c(C)cccc3Cl)s2)cc(N2CCN(CCO)CC2)n1 [dasatinib]; test: log2 fold change, soluble protein after heating vs DMSO (PISA); higher = thermal stabilisation; K562 cells, 10 uM, 30 min; active = over 0.2 and 3.5 SD of the protein, either way, in both replicates (recomputed)
Outline: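 K562 cells (2×10^6 cells/mL) were treated with 10 μM compound for 30 min, and aliquots were heated for 3 min over 48°C-58°C. Pooled aliquots were extracted in PBS with 0.5% NP-40 at 4°C, and the supernatant after 21,000xg for 90 min was measured by TMTpro 16plex LC-MS/MS with channel sums equalised. Reported thermal stability, relative to control samples and from duplicates, is a log2 fold change.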

Amino acid sequences for entries named in this document (tags omitted). A change or cut given only in a name is not applied to a line headed by its entry.
UniProt Q96JJ3: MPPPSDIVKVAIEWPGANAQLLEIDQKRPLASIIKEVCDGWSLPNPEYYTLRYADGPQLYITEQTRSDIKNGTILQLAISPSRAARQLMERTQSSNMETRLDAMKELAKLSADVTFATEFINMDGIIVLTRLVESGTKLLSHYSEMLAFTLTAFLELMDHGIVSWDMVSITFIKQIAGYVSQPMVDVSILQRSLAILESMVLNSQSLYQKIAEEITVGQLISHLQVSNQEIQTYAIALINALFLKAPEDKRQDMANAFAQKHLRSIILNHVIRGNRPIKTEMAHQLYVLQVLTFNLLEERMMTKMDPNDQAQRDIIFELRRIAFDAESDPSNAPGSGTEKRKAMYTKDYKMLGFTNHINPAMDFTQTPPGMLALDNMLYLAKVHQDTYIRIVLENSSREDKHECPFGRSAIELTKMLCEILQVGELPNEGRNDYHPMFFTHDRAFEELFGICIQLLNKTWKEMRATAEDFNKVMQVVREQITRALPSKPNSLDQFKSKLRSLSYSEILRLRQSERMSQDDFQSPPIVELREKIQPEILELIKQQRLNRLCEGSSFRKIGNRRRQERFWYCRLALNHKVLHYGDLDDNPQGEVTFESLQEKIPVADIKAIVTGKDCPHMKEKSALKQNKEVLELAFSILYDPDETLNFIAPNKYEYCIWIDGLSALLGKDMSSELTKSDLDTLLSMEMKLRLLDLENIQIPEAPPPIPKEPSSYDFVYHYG
UniProt O75822, whole entry, looked up: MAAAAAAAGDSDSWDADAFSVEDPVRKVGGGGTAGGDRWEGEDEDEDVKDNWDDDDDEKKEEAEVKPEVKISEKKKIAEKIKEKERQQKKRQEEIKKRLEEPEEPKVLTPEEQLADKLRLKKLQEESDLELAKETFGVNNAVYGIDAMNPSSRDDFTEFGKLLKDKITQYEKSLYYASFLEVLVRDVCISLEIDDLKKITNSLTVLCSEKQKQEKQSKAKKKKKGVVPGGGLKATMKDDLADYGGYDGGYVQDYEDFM
UniProt Q9BUP0: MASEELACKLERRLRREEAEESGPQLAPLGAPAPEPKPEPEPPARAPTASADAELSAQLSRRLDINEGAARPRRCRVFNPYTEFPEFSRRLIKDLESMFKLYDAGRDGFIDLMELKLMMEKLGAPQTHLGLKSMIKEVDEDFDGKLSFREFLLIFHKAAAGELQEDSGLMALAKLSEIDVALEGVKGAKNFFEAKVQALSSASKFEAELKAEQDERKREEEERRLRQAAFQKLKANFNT
UniProt Q6ZTU2, whole entry, looked up: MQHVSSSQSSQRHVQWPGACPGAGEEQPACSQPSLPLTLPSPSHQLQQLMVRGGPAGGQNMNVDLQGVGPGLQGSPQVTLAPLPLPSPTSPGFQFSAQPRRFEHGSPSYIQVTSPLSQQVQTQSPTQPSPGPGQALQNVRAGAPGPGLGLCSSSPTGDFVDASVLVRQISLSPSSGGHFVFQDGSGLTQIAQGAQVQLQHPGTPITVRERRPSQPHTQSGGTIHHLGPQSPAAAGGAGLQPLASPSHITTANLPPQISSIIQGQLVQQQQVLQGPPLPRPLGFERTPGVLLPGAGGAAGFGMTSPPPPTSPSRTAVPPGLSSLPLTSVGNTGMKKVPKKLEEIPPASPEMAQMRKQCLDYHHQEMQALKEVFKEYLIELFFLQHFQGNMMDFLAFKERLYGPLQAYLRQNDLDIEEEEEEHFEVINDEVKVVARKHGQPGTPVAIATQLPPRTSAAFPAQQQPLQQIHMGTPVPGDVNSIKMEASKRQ
UniProt A1L3X0: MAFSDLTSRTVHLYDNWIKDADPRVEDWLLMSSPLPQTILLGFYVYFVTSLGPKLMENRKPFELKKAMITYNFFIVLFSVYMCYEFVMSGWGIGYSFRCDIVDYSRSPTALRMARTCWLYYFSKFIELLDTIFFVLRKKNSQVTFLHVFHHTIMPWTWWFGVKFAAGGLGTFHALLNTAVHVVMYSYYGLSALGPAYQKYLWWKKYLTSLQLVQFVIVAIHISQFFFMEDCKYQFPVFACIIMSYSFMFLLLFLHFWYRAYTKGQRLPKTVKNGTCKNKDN
UniProt Q04637, whole entry, looked up: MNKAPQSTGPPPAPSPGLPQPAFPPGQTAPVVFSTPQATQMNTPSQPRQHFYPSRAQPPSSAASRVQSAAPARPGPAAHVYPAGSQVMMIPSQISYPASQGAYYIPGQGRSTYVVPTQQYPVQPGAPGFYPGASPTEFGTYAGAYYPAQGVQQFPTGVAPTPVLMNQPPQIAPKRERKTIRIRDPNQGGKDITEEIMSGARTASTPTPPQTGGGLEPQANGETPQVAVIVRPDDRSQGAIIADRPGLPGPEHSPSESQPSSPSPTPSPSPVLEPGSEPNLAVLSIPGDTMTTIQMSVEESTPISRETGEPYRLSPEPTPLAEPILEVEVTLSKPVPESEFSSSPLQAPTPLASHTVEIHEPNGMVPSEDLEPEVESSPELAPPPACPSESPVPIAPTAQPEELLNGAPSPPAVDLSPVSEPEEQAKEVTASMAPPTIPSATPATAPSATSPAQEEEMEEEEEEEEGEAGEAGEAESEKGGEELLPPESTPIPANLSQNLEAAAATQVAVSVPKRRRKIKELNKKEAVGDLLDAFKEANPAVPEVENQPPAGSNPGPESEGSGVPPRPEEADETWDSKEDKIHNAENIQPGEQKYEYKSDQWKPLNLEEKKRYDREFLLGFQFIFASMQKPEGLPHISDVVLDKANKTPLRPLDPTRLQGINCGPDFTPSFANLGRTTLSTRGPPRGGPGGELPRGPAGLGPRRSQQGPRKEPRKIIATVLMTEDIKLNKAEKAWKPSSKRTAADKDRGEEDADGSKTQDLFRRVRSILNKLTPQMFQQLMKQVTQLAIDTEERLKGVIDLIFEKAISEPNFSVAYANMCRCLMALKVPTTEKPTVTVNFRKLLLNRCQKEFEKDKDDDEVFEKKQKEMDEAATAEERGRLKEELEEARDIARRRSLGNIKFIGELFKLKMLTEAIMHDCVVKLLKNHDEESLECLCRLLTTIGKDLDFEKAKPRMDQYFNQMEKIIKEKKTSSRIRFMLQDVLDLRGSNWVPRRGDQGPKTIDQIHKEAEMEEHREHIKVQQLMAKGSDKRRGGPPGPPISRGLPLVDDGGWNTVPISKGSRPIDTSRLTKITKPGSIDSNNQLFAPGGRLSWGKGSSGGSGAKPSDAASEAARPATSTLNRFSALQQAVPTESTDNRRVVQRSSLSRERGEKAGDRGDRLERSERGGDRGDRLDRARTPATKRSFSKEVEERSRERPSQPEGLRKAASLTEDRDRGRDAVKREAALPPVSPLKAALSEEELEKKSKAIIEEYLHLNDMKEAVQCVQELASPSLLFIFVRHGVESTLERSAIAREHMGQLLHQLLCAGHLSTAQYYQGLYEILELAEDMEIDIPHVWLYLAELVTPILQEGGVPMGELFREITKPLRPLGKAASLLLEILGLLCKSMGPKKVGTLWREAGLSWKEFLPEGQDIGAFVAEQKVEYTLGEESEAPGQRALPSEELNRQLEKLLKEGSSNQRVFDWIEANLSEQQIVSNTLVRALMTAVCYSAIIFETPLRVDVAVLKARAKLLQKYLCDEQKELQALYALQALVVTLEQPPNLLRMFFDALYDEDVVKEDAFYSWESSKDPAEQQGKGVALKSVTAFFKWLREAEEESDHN
UniProt Q9GZV4: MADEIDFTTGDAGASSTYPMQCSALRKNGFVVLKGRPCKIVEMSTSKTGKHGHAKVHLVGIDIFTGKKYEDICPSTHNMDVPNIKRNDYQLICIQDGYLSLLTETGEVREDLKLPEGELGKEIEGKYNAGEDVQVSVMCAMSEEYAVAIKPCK
UniProt Q12805: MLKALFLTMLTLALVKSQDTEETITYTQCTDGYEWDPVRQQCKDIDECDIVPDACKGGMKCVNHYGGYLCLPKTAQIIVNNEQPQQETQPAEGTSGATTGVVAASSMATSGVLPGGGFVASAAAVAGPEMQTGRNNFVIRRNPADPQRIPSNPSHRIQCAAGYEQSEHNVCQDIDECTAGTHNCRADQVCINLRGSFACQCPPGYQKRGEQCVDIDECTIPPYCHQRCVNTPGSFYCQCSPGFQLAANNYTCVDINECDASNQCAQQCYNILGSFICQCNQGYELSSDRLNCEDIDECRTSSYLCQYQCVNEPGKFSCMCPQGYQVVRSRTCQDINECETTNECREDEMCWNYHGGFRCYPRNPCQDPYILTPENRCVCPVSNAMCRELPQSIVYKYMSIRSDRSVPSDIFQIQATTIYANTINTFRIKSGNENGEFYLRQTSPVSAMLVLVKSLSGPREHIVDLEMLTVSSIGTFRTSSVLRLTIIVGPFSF
UniProt P32519: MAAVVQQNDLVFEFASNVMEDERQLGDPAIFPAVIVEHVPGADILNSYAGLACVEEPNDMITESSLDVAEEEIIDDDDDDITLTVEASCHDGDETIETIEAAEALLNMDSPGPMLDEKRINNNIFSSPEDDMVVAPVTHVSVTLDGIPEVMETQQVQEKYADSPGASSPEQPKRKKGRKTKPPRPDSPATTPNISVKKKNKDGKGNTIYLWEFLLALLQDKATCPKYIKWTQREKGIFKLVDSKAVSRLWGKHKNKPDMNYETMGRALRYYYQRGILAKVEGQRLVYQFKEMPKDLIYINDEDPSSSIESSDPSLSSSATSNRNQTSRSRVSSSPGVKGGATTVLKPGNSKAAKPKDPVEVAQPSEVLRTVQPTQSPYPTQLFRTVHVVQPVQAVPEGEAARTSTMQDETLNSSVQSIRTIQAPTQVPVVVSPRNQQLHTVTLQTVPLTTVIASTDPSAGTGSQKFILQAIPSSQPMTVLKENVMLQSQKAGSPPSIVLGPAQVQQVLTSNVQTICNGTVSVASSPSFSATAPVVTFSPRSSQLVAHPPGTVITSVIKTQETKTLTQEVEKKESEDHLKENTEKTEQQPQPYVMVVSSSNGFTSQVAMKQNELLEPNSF
UniProt Q9H777: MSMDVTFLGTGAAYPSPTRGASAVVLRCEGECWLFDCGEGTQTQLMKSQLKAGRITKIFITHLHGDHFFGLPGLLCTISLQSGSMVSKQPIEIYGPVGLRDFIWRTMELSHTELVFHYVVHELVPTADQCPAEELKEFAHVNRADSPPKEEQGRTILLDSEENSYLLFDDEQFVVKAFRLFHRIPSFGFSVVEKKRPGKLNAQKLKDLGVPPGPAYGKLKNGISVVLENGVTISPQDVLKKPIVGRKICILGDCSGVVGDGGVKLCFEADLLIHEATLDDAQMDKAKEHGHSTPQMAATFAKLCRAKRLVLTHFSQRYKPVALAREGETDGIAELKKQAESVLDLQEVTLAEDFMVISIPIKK
UniProt Q96C92: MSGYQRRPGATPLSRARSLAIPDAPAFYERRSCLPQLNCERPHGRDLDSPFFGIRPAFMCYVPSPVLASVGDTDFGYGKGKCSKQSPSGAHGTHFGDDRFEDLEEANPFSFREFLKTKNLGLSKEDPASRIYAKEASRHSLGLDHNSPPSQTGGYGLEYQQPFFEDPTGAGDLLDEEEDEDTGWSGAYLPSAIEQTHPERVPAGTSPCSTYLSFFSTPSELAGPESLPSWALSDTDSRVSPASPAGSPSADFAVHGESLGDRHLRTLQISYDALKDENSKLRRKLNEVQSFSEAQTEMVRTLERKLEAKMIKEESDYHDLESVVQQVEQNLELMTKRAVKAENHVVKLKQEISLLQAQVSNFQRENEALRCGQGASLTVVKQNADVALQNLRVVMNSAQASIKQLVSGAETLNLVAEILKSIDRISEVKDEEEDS
UniProt P0DPD8: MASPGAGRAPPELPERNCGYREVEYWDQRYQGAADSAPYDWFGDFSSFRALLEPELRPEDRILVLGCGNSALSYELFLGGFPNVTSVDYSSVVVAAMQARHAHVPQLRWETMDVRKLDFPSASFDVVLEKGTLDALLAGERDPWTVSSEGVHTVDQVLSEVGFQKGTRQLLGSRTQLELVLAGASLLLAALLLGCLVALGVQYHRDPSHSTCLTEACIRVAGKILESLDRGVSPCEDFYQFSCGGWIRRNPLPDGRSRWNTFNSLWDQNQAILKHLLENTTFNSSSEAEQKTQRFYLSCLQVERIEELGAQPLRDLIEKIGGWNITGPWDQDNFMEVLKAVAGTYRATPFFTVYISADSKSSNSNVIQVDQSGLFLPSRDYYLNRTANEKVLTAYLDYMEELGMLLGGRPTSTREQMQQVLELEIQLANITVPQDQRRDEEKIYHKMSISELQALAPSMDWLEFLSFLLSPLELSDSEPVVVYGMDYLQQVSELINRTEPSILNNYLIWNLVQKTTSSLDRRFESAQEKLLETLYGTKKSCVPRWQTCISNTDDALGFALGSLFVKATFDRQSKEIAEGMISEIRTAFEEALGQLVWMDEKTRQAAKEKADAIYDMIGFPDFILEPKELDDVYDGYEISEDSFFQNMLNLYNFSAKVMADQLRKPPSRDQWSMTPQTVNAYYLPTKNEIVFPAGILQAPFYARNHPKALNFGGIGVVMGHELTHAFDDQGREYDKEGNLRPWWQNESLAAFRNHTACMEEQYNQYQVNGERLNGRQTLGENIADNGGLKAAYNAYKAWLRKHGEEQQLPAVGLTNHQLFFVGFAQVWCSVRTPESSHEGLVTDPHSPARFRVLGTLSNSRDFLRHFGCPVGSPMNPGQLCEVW

log2 fold change, inactive:
ELMO2 (UniProt Q96JJ3) -0.021
EIF3J isoform 2 (UniProt O75822) 0.017
EFHD1 (UniProt Q9BUP0) 0.284
EP400P1 isoform 6 (UniProt Q6ZTU2) -0.16
ELOVL7 (UniProt A1L3X0) -0.088
ENTPD7 (UniProt Q9NQZ7) -0.235
EIF4G1 (UniProt Q04637) -0.191
EIF3I (UniProt Q5TFK1) -0.27
ENO3 (UniProt K7EKN2) -0.249
EIF5A2 (UniProt Q9GZV4) -0.038
EFEMP1 (UniProt Q12805) -0.004
ELF1 (UniProt P32519) -0.134
ELAC1 (UniProt Q9H777) -0.073
ENTR1 (UniProt Q96C92) 0.003
EPB41, A0A2R8Y783 0.154
EEF1AKMT4-ECE2 (UniProt P0DPD8) -0.105

Not a retest: an excerpt of the list.
log2 fold change, inactive:
ENO3 (UniProt K7EKN2) -0.249
EIF5A2 (UniProt Q9GZV4) -0.038

Source: the supplement of paper PMC10849652
